No constants are given. Whether binding was seen depends on the method and setting. In cells and extracts the contact can be indirect. Some results given as binding are weak or reduced against the parent protein; the word gives no strength.
Biological target: T1, hexokinase 1 (HK1) (UniProt P19367)
T1 sequence: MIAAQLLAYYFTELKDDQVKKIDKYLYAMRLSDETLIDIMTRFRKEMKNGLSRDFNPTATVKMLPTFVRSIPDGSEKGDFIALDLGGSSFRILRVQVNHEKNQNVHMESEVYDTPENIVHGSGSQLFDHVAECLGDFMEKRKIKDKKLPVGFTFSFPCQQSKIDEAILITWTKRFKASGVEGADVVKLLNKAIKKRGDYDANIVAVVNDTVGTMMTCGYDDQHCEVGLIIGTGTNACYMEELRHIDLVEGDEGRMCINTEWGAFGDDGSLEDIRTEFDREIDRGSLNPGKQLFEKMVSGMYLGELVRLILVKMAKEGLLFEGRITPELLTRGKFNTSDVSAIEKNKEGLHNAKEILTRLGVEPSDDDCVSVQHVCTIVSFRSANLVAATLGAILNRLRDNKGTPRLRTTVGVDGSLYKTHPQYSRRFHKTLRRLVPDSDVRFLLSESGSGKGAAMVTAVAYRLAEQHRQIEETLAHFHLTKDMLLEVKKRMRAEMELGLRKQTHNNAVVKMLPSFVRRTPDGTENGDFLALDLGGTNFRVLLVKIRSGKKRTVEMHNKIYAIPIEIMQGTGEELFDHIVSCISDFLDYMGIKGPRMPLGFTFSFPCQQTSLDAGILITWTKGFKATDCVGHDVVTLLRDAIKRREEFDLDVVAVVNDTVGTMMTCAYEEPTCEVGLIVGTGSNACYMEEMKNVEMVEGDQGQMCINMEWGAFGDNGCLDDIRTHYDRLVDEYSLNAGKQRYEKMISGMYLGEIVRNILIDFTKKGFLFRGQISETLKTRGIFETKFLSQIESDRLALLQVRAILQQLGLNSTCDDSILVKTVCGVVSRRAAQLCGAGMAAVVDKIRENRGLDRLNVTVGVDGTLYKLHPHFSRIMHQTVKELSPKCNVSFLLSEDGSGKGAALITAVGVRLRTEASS
Test: co-IP; cell lysates (50 mM Tris-HCl pH 7.6, 150 mM NaCl, 100 mM NaF, 0.5% Nonidet P-40) with antibody and protein G-Sepharose, 4 °C, 3 h, western blot; cells with or without TGF-β (2 ng/ml) or PDNPA (10 μM)

B1: depalmitoylase ABHD17B (enzyme, UniProt Q5VST6 1-288)
chain: MNNLSFSELCCLFCCPPCPGKIASKLAFLPPDPTYTLMCDESGSRWTLHLSERADWQYSSREKDAIECFMTRTSKGNRIACMFVRCSPNAKYTLLFSHGNAVDLGQMSSFYIGLGSRINCNIFSYDYSGYGASSGKPTEKNLYADIEAAWLALRTRYGIRPENVIIYGQSIGTVPSVDLAARYESAAVILHSPLTSGMRVAFPDTKKTYCFDAFPNIDKISKITSPVLIIHGTEDEVIDFSHGLALFERCQRPVEPLWVEGAGHNDVELYGQYLERLKQFVSQELVNL
In the case of B1, the binding is reported as “binds”.

From publication PMC9584821
